# Assay results published in the supplement of paper PMC10849652.
# Protein sequences, listed by entry. Tags and fused reporters are not part of them. Lines headed by an entry give the natural chain unless they say otherwise; changes in a name come on top.
# UniProt Q86VX9: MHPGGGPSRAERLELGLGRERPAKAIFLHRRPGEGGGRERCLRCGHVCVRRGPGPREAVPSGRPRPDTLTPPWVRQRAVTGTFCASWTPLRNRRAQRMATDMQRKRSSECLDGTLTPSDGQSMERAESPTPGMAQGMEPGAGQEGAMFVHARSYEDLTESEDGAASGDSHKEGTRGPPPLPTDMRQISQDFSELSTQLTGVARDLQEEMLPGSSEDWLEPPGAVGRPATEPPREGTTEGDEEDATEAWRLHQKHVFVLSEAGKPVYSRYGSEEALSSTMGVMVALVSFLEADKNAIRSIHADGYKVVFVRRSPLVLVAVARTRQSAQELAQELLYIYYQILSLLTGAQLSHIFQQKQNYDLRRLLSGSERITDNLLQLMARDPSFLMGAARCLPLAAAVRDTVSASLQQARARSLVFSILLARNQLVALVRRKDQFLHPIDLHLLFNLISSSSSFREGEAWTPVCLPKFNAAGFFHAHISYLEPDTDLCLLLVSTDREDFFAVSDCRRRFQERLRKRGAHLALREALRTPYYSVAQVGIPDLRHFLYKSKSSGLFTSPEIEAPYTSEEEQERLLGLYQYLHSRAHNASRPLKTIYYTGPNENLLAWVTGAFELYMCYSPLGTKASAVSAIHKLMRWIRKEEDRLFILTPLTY
# UniProt Q15014, whole entry, looked up: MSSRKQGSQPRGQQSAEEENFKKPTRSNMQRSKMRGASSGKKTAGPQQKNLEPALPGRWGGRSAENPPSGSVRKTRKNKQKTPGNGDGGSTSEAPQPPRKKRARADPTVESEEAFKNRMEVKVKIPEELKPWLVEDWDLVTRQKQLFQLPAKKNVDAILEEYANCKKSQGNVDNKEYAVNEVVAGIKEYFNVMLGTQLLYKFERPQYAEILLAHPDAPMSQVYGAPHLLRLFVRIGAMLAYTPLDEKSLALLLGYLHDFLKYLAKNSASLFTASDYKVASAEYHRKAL
# UniProt Q9NQG6: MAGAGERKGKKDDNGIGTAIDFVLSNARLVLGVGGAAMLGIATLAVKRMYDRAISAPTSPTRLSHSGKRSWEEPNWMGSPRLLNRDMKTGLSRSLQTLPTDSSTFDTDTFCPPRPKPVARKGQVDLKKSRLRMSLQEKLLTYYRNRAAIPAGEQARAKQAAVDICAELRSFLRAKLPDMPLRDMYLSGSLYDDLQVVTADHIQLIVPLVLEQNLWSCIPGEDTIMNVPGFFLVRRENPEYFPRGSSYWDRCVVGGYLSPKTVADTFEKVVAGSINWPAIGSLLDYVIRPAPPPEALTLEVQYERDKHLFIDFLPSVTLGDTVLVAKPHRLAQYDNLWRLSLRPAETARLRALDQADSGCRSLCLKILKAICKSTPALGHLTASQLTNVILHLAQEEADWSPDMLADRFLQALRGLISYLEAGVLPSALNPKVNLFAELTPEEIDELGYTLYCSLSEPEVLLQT
# UniProt Q9BWT6: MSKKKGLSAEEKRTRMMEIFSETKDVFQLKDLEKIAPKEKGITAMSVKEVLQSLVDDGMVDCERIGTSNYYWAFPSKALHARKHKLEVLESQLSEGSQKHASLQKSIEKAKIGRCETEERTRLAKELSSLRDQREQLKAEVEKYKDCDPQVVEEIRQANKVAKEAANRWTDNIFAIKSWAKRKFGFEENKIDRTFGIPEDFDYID
# UniProt Q6NTE8: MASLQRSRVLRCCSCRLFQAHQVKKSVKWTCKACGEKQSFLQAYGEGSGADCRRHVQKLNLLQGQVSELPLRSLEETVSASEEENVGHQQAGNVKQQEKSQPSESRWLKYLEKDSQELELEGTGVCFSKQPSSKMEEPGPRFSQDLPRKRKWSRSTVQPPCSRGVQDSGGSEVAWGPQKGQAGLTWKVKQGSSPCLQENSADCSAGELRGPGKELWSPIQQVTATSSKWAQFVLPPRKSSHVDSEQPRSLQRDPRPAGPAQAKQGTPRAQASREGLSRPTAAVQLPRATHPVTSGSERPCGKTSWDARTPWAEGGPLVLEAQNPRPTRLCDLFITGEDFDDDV
# UniProt P14174: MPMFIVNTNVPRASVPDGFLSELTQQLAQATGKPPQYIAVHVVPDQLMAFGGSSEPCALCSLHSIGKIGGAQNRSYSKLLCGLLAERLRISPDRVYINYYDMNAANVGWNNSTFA
# UniProt Q9H000: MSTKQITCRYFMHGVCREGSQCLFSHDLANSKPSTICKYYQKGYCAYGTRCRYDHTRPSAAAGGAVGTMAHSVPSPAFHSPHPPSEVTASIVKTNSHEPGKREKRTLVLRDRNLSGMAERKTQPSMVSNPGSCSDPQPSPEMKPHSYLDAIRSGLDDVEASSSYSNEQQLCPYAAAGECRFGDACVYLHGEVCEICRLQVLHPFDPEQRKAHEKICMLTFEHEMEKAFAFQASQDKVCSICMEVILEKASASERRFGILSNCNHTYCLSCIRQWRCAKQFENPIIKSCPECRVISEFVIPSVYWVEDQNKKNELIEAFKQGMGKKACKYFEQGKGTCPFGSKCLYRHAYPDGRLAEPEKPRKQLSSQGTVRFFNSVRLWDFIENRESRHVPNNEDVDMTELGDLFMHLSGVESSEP
# UniProt Q9BUB5: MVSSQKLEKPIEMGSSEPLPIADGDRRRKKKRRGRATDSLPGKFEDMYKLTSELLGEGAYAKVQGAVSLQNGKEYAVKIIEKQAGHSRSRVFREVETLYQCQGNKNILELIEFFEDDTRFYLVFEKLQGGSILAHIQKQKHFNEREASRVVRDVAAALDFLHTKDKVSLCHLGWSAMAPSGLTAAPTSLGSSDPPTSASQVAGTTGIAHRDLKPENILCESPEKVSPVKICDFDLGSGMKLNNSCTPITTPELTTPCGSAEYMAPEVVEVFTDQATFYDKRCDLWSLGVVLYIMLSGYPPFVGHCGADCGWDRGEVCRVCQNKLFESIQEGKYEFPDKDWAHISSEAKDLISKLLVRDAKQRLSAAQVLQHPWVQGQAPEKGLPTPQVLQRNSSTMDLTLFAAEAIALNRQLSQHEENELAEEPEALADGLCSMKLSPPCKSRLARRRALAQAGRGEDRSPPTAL
# The other results are listed elsewhere or left out.
# Experiments:
# Assay in all cases: log2 fold change, soluble protein after heating vs DMSO (PISA); higher = thermal stabilisation; K562 cells, 10 uM, 30 min; active = over 0.2 and 3.5 SD of the protein, either way, in both replicates (recomputed)
# [1] = compound: CC[C@@H]1C(=O)N(C)c2cnc(Nc3ccc(C(=O)NC4CCN(C)CC4)cc3OC)nc2N1C1CCCC1
# Summary of the method: (§1)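 Soluble protein was quantified by TMTpro 16plex LC-MS/MS after channel sums were equalised. It was obtained as the supernatant after 21,000xg for 90 min from pooled aliquots of K562 cells (2×10^6 cells/mL, 10 μM compound, 30 min) heated for 3 min across 48°C-58°C and extracted in PBS with 0.5% NP-40 at 4°C. Thermal stability values are relative to control samples and come from duplicates. They are given as log2 fold changes.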
# [2] = compound: CC[C@@H]1C(=O)N(C)c2cnc(Nc3ccc(C(=O)N[C@H]4CC[C@H](N5CCN(CC6CC6)CC5)CC4)cc3OC)nc2N1C(C)C [volasertib]
# Summary of the method: as §1
# [3] = compound: CC[C@H](C)N1C=C(C2=C(C=C(C=C21)C3=CN=C(C=C3)N4CCNCC4)C(=O)NCC5=C(C=C(NC5=O)C)C)C
# Summary of the method: as §1
# [4] = compound: CC[C@H](C)[C@@H](C(=O)N[C@@H]([C@@H](C)O)C(=O)N[C@@H](CC(C)C)C(=O)[C@]1(CO1)C)NC(=O)[C@H]([C@@H](C)CC)N(C)C(=O)C [epoxomicin]
# Summary of the method: as §1
# [5] = compound: CCn1cc(-c2ccnc3[nH]c(-c4cccc(CN(C)C)c4)cc23)c(-c2ccc(NC(=O)N(C)C)cc2)n1
# Summary of the method: as §1
# [6] = compound: CN1C2=C(C3=C1C(=O)N(N=C3)CC4=CC(=CC=C4)N)SC(=C2)S(=O)C
# Summary of the method: as §1
# [7] = compound: CN1CCC(CNc2ccc3ncc(-c4cccc(OC(F)(F)F)c4)n3n2)CC1
# Summary of the method: as §1
# [8] = compound: CN1CCN(CCOc2cc(OC3CCOCC3)c3c(Nc4c(Cl)ccc5c4OCO5)ncnc3c2)CC1 [saracatinib]
# Summary of the method: as §1
# [9] = compound: CN1CCN(c2nc(C3=C(c4c[nH]c5ccccc45)C(=O)NC3=O)c3ccccc3n2)CC1 [sotrastaurin]
# Summary of the method: as §1
# [10] = compound: CN1CCc2c(c3ccccc3n2Cc2ccc(C(=O)NO)cc2)C1 [Tubastatin A]
# Summary of the method: as §1
# [11] = compound: CNC(=O)C1=CC=CC=C1NC2=NC(=NC=C2Cl)NC3=C(C=C(C=C3)N4CCOCC4)OC
# Summary of the method: as §1
# [12] = compound: CNCc1ccc(-c2[nH]c3cc(F)cc4c3c2CCNC4=O)cc1 [rucaparib]
# Summary of the method: as §1
# [13] = compound: CNc1nc(-c2ccc3c(N)n[nH]c3c2)cc(N2C[C@@H](C(=O)NC3CCCCC3)CC[C@H]2C)n1
# Summary of the method: as §1
# [14] = compound: COC(=O)N[C@@H](C)CNc1nccc(-c2cn(C(C)C)nc2-c2cc(Cl)cc(NS(C)(=O)=O)c2F)n1 [encorafenib]
# Summary of the method: as §1
# [15] = compound: CN(C)CC(=O)Nc1ccc2[nH]c(=O)c3ccccc3c2c1
# Summary of the method: as §1
# [16] = compound: CNC(=O)c1ccc(Nc2ncc(C(F)(F)F)c(NCc3nccnc3N(C)S(C)(=O)=O)n2)cc1 [defactinib]
# Summary of the method: as §1
# [17] = compound: COC(=O)[C@H](CCSC)NC(=O)C1=C(C=C(C=C1)NC[C@H](CS)N)C2=CC=CC=C2
# Summary of the method: as §1
# [18] = compound: CCn1c(C(=O)N(C2CC2)C2CC2)cc2c3c(ncn3C)c(Nc3cc(C)n(C)n3)nc21
# Summary of the method: as §1
# [19] = compound: CN(CCOC1=CC=C(C=C1)C[C@H]2C(=O)NC(=O)S2)C3=CC=CC=N3 (racemic) [rosiglitazone]
# Summary of the method: as §1
# [20] = compound: CN1CC[C@H](c2c(O)cc(O)c3c(=O)cc(-c4ccccc4Cl)oc23)[C@H](O)C1 [alvocidib]
# Summary of the method: as §1
Target,log2 fold change [1],log2 fold change [2],log2 fold change [3],log2 fold change [4],log2 fold change [5],log2 fold change [6],log2 fold change [7],log2 fold change [8],log2 fold change [9],log2 fold change [10],log2 fold change [11],log2 fold change [12],log2 fold change [13],log2 fold change [14],log2 fold change [15],log2 fold change [16],log2 fold change [17],log2 fold change [18],log2 fold change [19],log2 fold change [20]
MON1A (UniProt Q86VX9),inactive: -0.11,inactive: -0.012,inactive: -0.141,inactive: -0.101,inactive: 0.003,inactive: 0.032,inactive: -0.041,inactive: 0.013,inactive: 0.058,inactive: 0.047,inactive: -0.103,inactive: -0.023,inactive: 0.029,inactive: 0.253,–,–,–,–,–,–
MORF4L2 (UniProt Q15014),inactive: 0.074,inactive: 0.023,inactive: 0.014,inactive: 0.085,inactive: 0.075,inactive: 0.12,inactive: 0.076,inactive: -0.002,inactive: -0.01,inactive: 0.136,inactive: -0.003,inactive: 0.056,inactive: -0.1,inactive: 0.04,inactive: -0.125,inactive: 0.011,inactive: 0.066,–,–,–
MIEF1 (UniProt Q9NQG6),inactive: -0.053,inactive: -0.098,inactive: 0.031,inactive: 0.073,inactive: 0.019,inactive: -0.018,active: -0.546,inactive: -0.016,inactive: -0.042,inactive: -0.024,inactive: -0.002,inactive: -0.009,inactive: -0.088,inactive: 0.023,inactive: 0.054,inactive: 0.014,inactive: -0.018,–,–,–
MND1 (UniProt Q9BWT6),inactive: -0.081,inactive: -0.175,inactive: -0.036,inactive: 0.049,inactive: -0.076,inactive: 0.04,active: -0.468,inactive: 0.006,inactive: 0.036,inactive: -0.006,inactive: -0.029,inactive: 0.05,inactive: -0.059,inactive: -0.15,inactive: -0.015,inactive: -0.021,inactive: 0.023,–,–,–
"MICB, A0A140T979",inactive: -0.033,inactive: -0.044,inactive: 0.042,inactive: -0.008,inactive: -0.011,inactive: -0.087,inactive: -0.027,inactive: 0.064,–,inactive: 0.079,inactive: 0.019,inactive: -0.071,inactive: 0.042,inactive: 0.058,inactive: 0.056,inactive: 0.013,inactive: -0.02,inactive: -0.022,inactive: 0.042,inactive: -0.02
MRNIP (UniProt Q6NTE8),inactive: -0.07,inactive: -0.045,inactive: -0.344,inactive: 0.019,inactive: 0.209,–,inactive: 0.005,–,inactive: -0.035,inactive: 0.117,inactive: -0.029,inactive: -0.095,–,inactive: 0.045,inactive: -0.105,inactive: -0.201,inactive: 0.066,inactive: 0.026,–,–
MIF (UniProt P14174),inactive: 0.025,inactive: 0.021,inactive: -0.096,active: 0.454,inactive: 0.081,inactive: -0.038,inactive: 0.211,inactive: -0.029,inactive: -0.005,inactive: -0.065,inactive: 0.82,inactive: 0.026,inactive: -0.105,inactive: -0.058,inactive: 0.025,inactive: -0.019,inactive: 0.06,–,–,–
MKRN2 (UniProt Q9H000),inactive: -0.08,active: -0.633,inactive: 0.106,inactive: -0.068,inactive: 0.193,inactive: 0.152,inactive: 0.082,inactive: -0.203,inactive: -0.024,inactive: 0.177,inactive: -0.08,inactive: 0.258,inactive: 0.007,inactive: 0.109,inactive: 0.126,inactive: -0.049,inactive: -0.005,–,–,–
MRPL34 (UniProt Q9BQ48),inactive: 0.061,inactive: 0.029,inactive: -0.007,inactive: -0.042,inactive: 0.109,inactive: 0.232,inactive: 0.048,inactive: -0.09,inactive: 0,inactive: 0.119,inactive: 0.086,inactive: 0.101,inactive: 0.169,inactive: 0.055,inactive: -0.065,inactive: 0.138,inactive: 0.035,–,–,–
MKNK1 (UniProt Q9BUB5),inactive: -0.148,inactive: -0.183,inactive: -0.025,inactive: 0.018,inactive: -0.101,inactive: -0.095,inactive: -0.006,inactive: 0.049,inactive: -0.088,inactive: 0.037,inactive: 0.038,inactive: 0.099,inactive: 0.051,inactive: 0.018,inactive: 0.009,inactive: -0.102,inactive: -0.053,–,–,–

# Complete entries as entered above. Values in the order: log2 fold change [1] | log2 fold change [2] | log2 fold change [3] | log2 fold change [4] | log2 fold change [5] | log2 fold change [6] | log2 fold change [7] | log2 fold change [8] | log2 fold change [9] | log2 fold change [10] | log2 fold change [11] | log2 fold change [12] | log2 fold change [13] | log2 fold change [14] | log2 fold change [15] | log2 fold change [16] | log2 fold change [17] | log2 fold change [18] | log2 fold change [19] | log2 fold change [20]
# MKNK1 (UniProt Q9BUB5) in the list: inactive: -0.148 | inactive: -0.183 | inactive: -0.025 | inactive: 0.018 | inactive: -0.101 | inactive: -0.095 | inactive: -0.006 | inactive: 0.049 | inactive: -0.088 | inactive: 0.037 | inactive: 0.038 | inactive: 0.099 | inactive: 0.051 | inactive: 0.018 | inactive: 0.009 | inactive: -0.102 | inactive: -0.053 | – | – | –
# MKRN2 (UniProt Q9H000) in the list: inactive: -0.08 | active: -0.633 | inactive: 0.106 | inactive: -0.068 | inactive: 0.193 | inactive: 0.152 | inactive: 0.082 | inactive: -0.203 | inactive: -0.024 | inactive: 0.177 | inactive: -0.08 | inactive: 0.258 | inactive: 0.007 | inactive: 0.109 | inactive: 0.126 | inactive: -0.049 | inactive: -0.005 | – | – | –
